Measurements as given in patent US20220155314A1, “TROPHOBLAST STEM CELL, METHODS OF PREPARATION AND USES THEREOF” (Academia Sinica, priority 2020, published 2022).
At least one compound was matched to its structure with a doubt left.

What was measured:
Format in all cases: cell-based, human
TS^Term cells = assay: Induction of STBs or EVTs from TS^Term cells; details: FSK, 5 days, normoxia (FIG. 8C)
JEG3 cells [1] = assay: Immunoblotting and quantitative RT-PCR of trophoblast differentiation and stemness genes in JEG3 cells
From the text: FIGS. 2A to 2I show the physical and functional interaction between ΔNp63α and GCM1. […] First-trimester and term placental sections were stained with ΔNp63α and GCM1 antibodies (Abs) for immunofluorescence microscopy. Boxed areas are shown at higher magnification and presented below. Arrowhead, asterisk, and arrow indicate trophoblasts expressing ΔNp63α, GCM1, and both, respectively. Nuclei were stained with DAPI. Term placental sections were stained with CK7 Ab for trophoblasts and normal mouse IgG (M-IgG) and rabbit IgG (R-IgG) for negative controls. […] 293T cells were transfected with different combinations of pΔNp63α-FLAG, pOVOL1-FLAG, and pHA-GCM1 for co-immunoprecipitation analysis with HA and FLAG mAbs. […] 293T cells were transfected with pHA-GCM1 and different pΔNp63α-FLAG plasmids encoding full-length or deletion mutant ΔNp63α-FLAG proteins, followed by co-immunoprecipitation analysis with HA and FLAG mAbs. Schematic representation of functional domains in ΔNp63α is presented. DBD: DNA-binding domain; OD: oligomerization domain; SAM: sterile alpha motif; TID: transactivation inhibitory domain. In a separate experiment, 293T cells were transfected with pΔNp63α-HA and pGAL4-FLAG or different pGAL4-GCM1-FLAG plasmids encoding full-length or deletion mutant GAL4GCM1-FLAG proteins for co-immunoprecipitation analysis with HA and FLAG mAbs. Schematic representation of functional domains in GCM1 is presented. TAD: transactivation domain. […] Glutathione-conjugated agarose beads pre-bound with GST, GST-SAM or GST-OD were incubated with recombinant GCM1-FLAG protein in pull-down assays. […] Mock and ΔNp63α-FLAG-expressing BeWo cells were subjected to immunoblotting (left) and quantitative RT-PCR (right) analyses of GCM1, HTRA4, and hCGβ proteins and transcripts. […] BeWo cells stably expressing scramble or GCM1 shRNA were subjected to immunoblotting (left) and quantitative RT-PCR (right) analyses of GCM1 and ΔNp63α proteins and transcripts. […] JEG3 cells were mock treated (DMSO or control buffer (CTRL)) or treated with 50 μM FSK or 1 mM DB-cAMP for 24 h, followed by immunoblotting and quantitative RT-PCR analyses of the indicated trophoblast differentiation and stemness proteins or transcripts. […]
FIGS. 3A to 3I show reciprocal regulation of GCM1 and ΔNp63α activities in trophoblast differentiation. […] Scramble control, ΔNp63α-knockdown or GCM1-knockdown JEG3 cells were treated with or without 50 μM FSK for 24 h and then harvested for immunoblotting and quantitative RT-PCR analyses of SYN1, hCGβ, HTRA4 proteins or transcripts. […] Cell fusion was quantified by fusion index. […] Mock and ΔNp63α-FLAG-expressing BeWo cells or scramble control and ΔNp63α-knockdown JEG3 cells were subjected to immunoblotting and quantitative RT-PCR analyses of RACK1 and GATA3 proteins or transcripts. […]

GCM1-KO JEG3 cells = assay: FSK response of GCM1-knockout JEG3 cells; details: 50 μM FSK, 24 hours (FIG. 3H)
JEG3 cells [2] = assay: Cell fusion assay (fusion index, E-cadherin staining); details: FSK 48 h; enhanced by ΔNp63α knockdown (FIG. 3B)
ΔNp63α = ΔNp63α stability in JEG3 cells (FSK with or without MG132)
Experimental: FIGS. 3A to 3I show reciprocal regulation of GCM1 and ΔNp63α activities in trophoblast differentiation. […] Scramble control, ΔNp63α-knockdown or GCM1-knockdown JEG3 cells were treated with or without 50 μM FSK for 24 h and then harvested for immunoblotting and quantitative RT-PCR analyses of SYN1, hCGβ, HTRA4 proteins or transcripts. Arrowhead denotes a non-specific band recognized by ΔNp63α Ab. […] Scramble control and ΔNp63α knockdown JEG3 cells were treated with or without 50 μM FSK for 48 h, followed by immunofluorescence microscopy with E-cadherin Ab. Syncytial margins are marked with stippled line. Cell fusion was quantified by fusion index. […] Mock and ΔNp63α-FLAG-expressing BeWo cells or scramble control and ΔNp63α-knockdown JEG3 cells were subjected to immunoblotting and quantitative RT-PCR analyses of RACK1 and GATA3 proteins or transcripts. […] Scramble control or ΔNp63α-knockdown JEG3 cells were transfected with pHTRA4-1 Kb with or without pGATA3-FLAG for 48 h, followed by luciferase assays. […] WT and GCM1-KO JEG3 cells were treated with or without 50 μM FSK for 24 hours and then harvested for immunoblotting and quantitative RT-PCR analyses of GCM1, ΔNp63α, hCGβ proteins and transcripts. […] Quantitation of band intensity was performed by densitometry analysis, and the relative ΔNp63α protein level was normalized by β-actin. […]

C=C[C@@]1(C)CC(=O)[C@]2(O)[C@@]3(C)[C@@H](O)CCC(C)(C)[C@@H]3[C@H](O)[C@H](OC(C)=O)[C@@]2(C)O1 [FSK, forskolin]
differentiation of TS^Term cells into STBs (TS^Term cells): multinucleated and hCGβ-positive STBs
expression of ΔNp63α and trophoblast stemness genes ELF5, EOMES, and TEAD4 (JEG3 cells [1]; 50 μM FSK or 1 mM DB-cAMP, 24 h (FIG. 2I)): decreased expression
expression of GCM1 and its target genes syncytin-1 (SYN1), hCGβ, HTRA4, PGF, and WNT10B (JEG3 cells [1]; 50 μM FSK or 1 mM DB-cAMP, 24 h, immunoblotting and qRT-PCR (FIG. 2I)): increased expression
ΔNp63α expression (JEG3 cells [1]; 50 μM FSK, 24 h, effect counteracted by GCM1 knockdown (FIG. 3A)): suppression
SYN1, hCGβ, and HTRA4 expression (JEG3 cells [1]; 50 μM FSK, 24 h, effect enhanced by ΔNp63α knockdown (FIG. 3A)): stimulation
stimulation of hCGβ or HTRA4 expression by FSK (GCM1-KO JEG3 cells): blunted
ΔNp63α protein and transcript levels (GCM1-KO JEG3 cells): not significantly affected
fusion of JEG3 cells (JEG3 cells [2]): stimulated
ubiquitination of ΔNp63α (ΔNp63α): not affected
ΔNp63α degradation (ΔNp63α; JEG3 cells, 50 μM FSK 24 h (FIG. 3F)): facilitates ΔNp63α degradation
